Reference: paper PMC10679481
No constants are given. Whether binding was seen depends on the method and setting. Binding seen in cells or lysates may run through a third protein. Some results given as binding are weak or reduced against the parent protein; the word gives no strength.

Amino acid sequences for entries named in this document (tags omitted).
UniProt Q08828: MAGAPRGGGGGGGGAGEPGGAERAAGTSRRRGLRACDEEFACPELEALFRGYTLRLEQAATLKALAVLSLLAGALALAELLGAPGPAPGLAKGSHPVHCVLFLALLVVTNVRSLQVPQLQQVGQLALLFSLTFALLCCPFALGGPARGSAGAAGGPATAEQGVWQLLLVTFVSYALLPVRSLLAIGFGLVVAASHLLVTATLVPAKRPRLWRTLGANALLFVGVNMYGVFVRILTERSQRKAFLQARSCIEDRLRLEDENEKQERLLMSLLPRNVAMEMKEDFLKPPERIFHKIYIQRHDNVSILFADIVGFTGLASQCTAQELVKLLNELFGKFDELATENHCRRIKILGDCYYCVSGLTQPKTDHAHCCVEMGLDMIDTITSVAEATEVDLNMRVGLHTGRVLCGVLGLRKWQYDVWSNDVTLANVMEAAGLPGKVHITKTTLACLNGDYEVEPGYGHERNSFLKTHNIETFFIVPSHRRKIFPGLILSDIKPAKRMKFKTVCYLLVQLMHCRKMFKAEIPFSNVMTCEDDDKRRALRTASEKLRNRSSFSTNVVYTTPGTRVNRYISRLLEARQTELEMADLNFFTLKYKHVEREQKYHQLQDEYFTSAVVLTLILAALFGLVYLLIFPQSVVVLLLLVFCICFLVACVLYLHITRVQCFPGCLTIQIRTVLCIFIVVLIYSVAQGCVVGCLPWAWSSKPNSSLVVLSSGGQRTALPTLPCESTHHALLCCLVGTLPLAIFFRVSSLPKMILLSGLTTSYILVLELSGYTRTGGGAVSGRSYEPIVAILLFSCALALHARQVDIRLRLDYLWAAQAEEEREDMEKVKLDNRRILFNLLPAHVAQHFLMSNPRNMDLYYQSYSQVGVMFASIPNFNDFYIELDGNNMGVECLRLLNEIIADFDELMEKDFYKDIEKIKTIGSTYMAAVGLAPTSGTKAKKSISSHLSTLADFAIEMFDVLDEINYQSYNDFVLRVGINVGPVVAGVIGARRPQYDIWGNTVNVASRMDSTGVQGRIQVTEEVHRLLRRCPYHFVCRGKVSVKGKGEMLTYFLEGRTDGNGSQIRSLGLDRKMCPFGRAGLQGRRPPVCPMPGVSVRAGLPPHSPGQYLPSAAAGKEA

Target: T1, TRIP-Br1 (human (endogenous in HeLa)) (UniProt Q9UHV2)
T1 sequence: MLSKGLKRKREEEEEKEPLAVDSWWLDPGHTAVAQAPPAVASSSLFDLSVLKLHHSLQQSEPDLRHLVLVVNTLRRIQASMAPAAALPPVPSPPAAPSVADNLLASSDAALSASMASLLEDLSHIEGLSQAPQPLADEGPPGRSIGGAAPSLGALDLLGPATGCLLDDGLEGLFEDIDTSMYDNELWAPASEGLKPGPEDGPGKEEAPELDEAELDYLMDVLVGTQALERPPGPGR
Experiment: co-IP; nanobead-based SiMPull for cell populations: endogenous TRIP-Br1 pulled down from 10^5 HeLa cells with anti-TRIP-Br1-coated magnetic nanobeads, AC1 detected with anti-AC1 1st antibody and fluorophore-labeled 2nd antibody

binding: binds
Substance: adenylyl cyclase 1 (from UniProt Q08828 1-1119) (enzyme)
